# Laboratory results from PMC7819943, “Rice protein-binding microarrays: a tool to detect cis-acting elements near promoter regions in rice”.
# Protein sequences, listed by entry. Tags and fused reporters are not part of them.
# UniProt Q0JBA9, entry or part of it: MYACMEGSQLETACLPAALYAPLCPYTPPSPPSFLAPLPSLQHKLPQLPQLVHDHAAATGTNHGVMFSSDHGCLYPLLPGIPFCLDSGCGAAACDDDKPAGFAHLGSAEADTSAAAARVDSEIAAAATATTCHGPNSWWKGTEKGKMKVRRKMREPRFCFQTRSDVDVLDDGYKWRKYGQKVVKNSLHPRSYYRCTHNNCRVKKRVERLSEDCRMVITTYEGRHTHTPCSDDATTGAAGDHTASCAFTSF
# This is one part of the list.
# Target: OsWRKY34 (Oryza sativa, UniProt Q0JBA9 1-250)
# Assay: protein-binding microarray (RPBM); PBS, 2% BSA, 51.3 ng/ul salmon testes DNA, 50 uM zinc acetate, 200 nM TF, 25 C, 1 h; high values mean tight binding
# Conditions: protein: recombinant; tags: N-terminal polyhistidine and DsRed monomer fusion (pET32a); label: CyDye5-dUTP incorporated in the synthesized complementary strand; 3' TTTTT single-stranded linker to array surface; dsDNA, one strand shown
# Summary of the method: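 An Axon 4000B scanner gave the binding signal as per-feature fluorescence intensity in arbitrary units. This followed washing of a custom Agilent array that had been incubated for 1 h at 25 °C with 200 nM protein in PBS, 2% BSA, salmon testes DNA and 50 µM zinc acetate. The proteins were transcription factors fused at the N-terminus to polyhistidine and DsRed, expressed in E. coli BL21-CodonPlus and purified on Ni–NTA.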
row,Sequence,binding signal
1,TCGCAATTTCTCCTCTAACCATGCAATTAGTTTTTCATTTCGGAGTCACCTAGTGCAG,9490 fluorescence intensity (a.u.)
2,AGACAGTGATGACTTGGTCCACTTTTTTCTCCTGGGTTAGCGGAGTCACCTAGTGCAG,8220 fluorescence intensity (a.u.)
3,CGCCCACCTATCTTACCACTGACACATTGGCCCCACCACCCGGAGTCACCTAGTGCAG,8080 fluorescence intensity (a.u.)
4,TCGTGCGTGAGTTATGCTTCTTGAGTTTGCCCTTGCCTACCGGAGTCACCTAGTGCAG,9390 fluorescence intensity (a.u.)
5,TCCCCGCGCCACCGCCGTCGCCGCCGCCCTCGACTACCGCCGGAGTCACCTAGTGCAG,8840 fluorescence intensity (a.u.)
6,TCAGCAGCTGCTTCACACTCACACTGCCTCCTCTCTCTCTCGGAGTCACCTAGTGCAG,8550 fluorescence intensity (a.u.)
7,TTATTACCCGTTGTTCTTTTGTTGCACGGTCGTGCCTTTCCGGAGTCACCTAGTGCAG,9590 fluorescence intensity (a.u.)
8,CCCGTGTCTTGTGTGTTTCCATTCTCGCGAACCTTCCACACGGAGTCACCTAGTGCAG,9910 ± 264 fluorescence intensity (a.u.)
9,GTTGGTGTTAGTCCCTGACATTGATTTTACGTTAGATATACGGAGTCACCTAGTGCAG,9750 fluorescence intensity (a.u.)
10,GGGGTATTGTTACATTTTTTCCCCTCCCACAATGGTTTCTCGGAGTCACCTAGTGCAG,8580 fluorescence intensity (a.u.)
11,TCCCCTGGTCTCTCGCTCTCTTCGCTCGCGGCGGCTTCTCCGGAGTCACCTAGTGCAG,11200 fluorescence intensity (a.u.)
12,CTCCTCCGCTTCCAATCCCCAAATCCCCATCCGCTATATCCGGAGTCACCTAGTGCAG,8540 fluorescence intensity (a.u.)
13,TTTTTTGGTTGGTTGCACTGATCGAGTGTGGTTACCTCTTCGGAGTCACCTAGTGCAG,9410 fluorescence intensity (a.u.)
14,AGTCGATTAGTAGTTTCTTAAAGTAGTTCCTGATATTTTTCGGAGTCACCTAGTGCAG,8270 fluorescence intensity (a.u.)
15,TGATTTTTGACCATTGCTTGGCTTCCTGGAGCTGTAATTGCGGAGTCACCTAGTGCAG,9470 fluorescence intensity (a.u.)
16,GGAAAAAACTCTTCTATCTTTTACGGTAGTGCTACTCTCTCGGAGTCACCTAGTGCAG,8680 fluorescence intensity (a.u.)
17,TTCCGTGTCCAATGTTTGACTGTCCGTCTTATATGAAATTCGGAGTCACCTAGTGCAG,9530 fluorescence intensity (a.u.)
18,GTTTTTAGCCGCCGTAGTTTTTTAAGCTCCAGTTTCTTTTCGGAGTCACCTAGTGCAG,8150 fluorescence intensity (a.u.)
19,CGTATCCGTGTCTCGATCTGGGCCCCACCTGTCAGTGTCTCGGAGTCACCTAGTGCAG,12600 fluorescence intensity (a.u.)
20,TCTCTCTCTCTCTCTTTCTCTGACTTCTTCTTTCTCAATTCGGAGTCACCTAGTGCAG,8700 fluorescence intensity (a.u.)
21,CTCTTATTCCCTCTCTCTCTCTCCCTGTTGCCCAAGGAACCGGAGTCACCTAGTGCAG,10100 fluorescence intensity (a.u.)

row,Sequence,binding signal
1,GTCCAGGATGCCTGTTATACCTCATTGTGCTGCACTGTCACGGAGTCACCTAGTGCAG,8120 fluorescence intensity (a.u.)
2,ACATAGCCAGTTGAGCTCACTTTGCAAATTAAGGTTTTTTCGGAGTCACCTAGTGCAG,8500 fluorescence intensity (a.u.)
3,ATCTCGCCTCGCTCTAATAACACTTCATCTTCCGAGTTCCCGGAGTCACCTAGTGCAG,8380 fluorescence intensity (a.u.)
4,TATAGGTGTGGTTTATTATTTTTATTAATTTTATAAATTTCGGAGTCACCTAGTGCAG,10600 fluorescence intensity (a.u.)
5,TTCTCCTGTCATTCTGTCGAGCTTTGTATCACGTAATCCTCGGAGTCACCTAGTGCAG,12000 fluorescence intensity (a.u.)
6,ATAGATGTTGCTTTGACTTTCTGCTTACAATATTTGACCACGGAGTCACCTAGTGCAG,14300 fluorescence intensity (a.u.)
7,TCCGCCCGATCCGTCCGCCGCCTCCAGATCCGCGCCCATGCGGAGTCACCTAGTGCAG,14000 fluorescence intensity (a.u.)
8,GAGGTGACGCTGCCGCCGGCGGTGGGCGGAGTGGGAGGGGCGGAGTCACCTAGTGCAG,8390 fluorescence intensity (a.u.)
9,GAGATTCTACTAGCTATAGGTGATTCCCTCTGGTTTTTTCCGGAGTCACCTAGTGCAG,8140 fluorescence intensity (a.u.)
10,ATCAAACTGTTATTTCTGTATTTTTCCTGTGTTTTACAATCGGAGTCACCTAGTGCAG,8920 fluorescence intensity (a.u.)
11,GCTGCCAACCCGAGTCACGAGACCTCATCTCTCCTCAATCCGGAGTCACCTAGTGCAG,10400 fluorescence intensity (a.u.)
12,CAGTTTCATCCCTAGGTGGTGGTGGCGGTGCGTGGAGTGACGGAGTCACCTAGTGCAG,16600 fluorescence intensity (a.u.)
13,TGTTATGCAGTTGATTCTCTTTCTAGCTGTCTAAATTTCTCGGAGTCACCTAGTGCAG,8910 fluorescence intensity (a.u.)
14,GTAAATGACAAATGGGTCCCACACATATTTTTTTTATTTCCGGAGTCACCTAGTGCAG,8060 fluorescence intensity (a.u.)
15,TGCCCTCGTCATTTTTGCGCGACGGTTCAGTGATATCGACCGGAGTCACCTAGTGCAG,8610 fluorescence intensity (a.u.)
16,CCACTGCCTGTCGCTGCCATTCTTGTCGCCATCGCATCGCCGGAGTCACCTAGTGCAG,9600 fluorescence intensity (a.u.)
17,CATGTCACCGGTCAGCCTCATCGCCGCTCCCAAAAAAGACCGGAGTCACCTAGTGCAG,8280 fluorescence intensity (a.u.)
18,CTATAAATACACGACGTCTCTCCGCTGGCTTACACACAACCGGAGTCACCTAGTGCAG,10100 fluorescence intensity (a.u.)
19,AATATCTTGCAGCTATTTCTTTTTCTATTACATTGAACCCCGGAGTCACCTAGTGCAG,8820 fluorescence intensity (a.u.)
20,TTTTAGCCTATGTAATGTGTGCAAGTTTTAGCCTGATTTCCGGAGTCACCTAGTGCAG,8960 fluorescence intensity (a.u.)
21,TTTACGTTTGAATCACCATTCTACATACTATTTAAATTTACGGAGTCACCTAGTGCAG,8100 fluorescence intensity (a.u.)

row,Sequence,binding signal
1,TTCTATCACATCAAAACTTTTCTACACACACAAACTTTCACGGAGTCACCTAGTGCAG,8700 fluorescence intensity (a.u.)
2,CCTCGTCGCGTTCATATTTGCTCACGGCTCGCGCGGCACTCGGAGTCACCTAGTGCAG,11900 fluorescence intensity (a.u.)
3,GGCTTGTTAGCCGATCGGCTGTTTGATCTATTATTTGCAACGGAGTCACCTAGTGCAG,8870 fluorescence intensity (a.u.)
4,GTGGTTTTTTCTTTTCCATTTTTTTGTTGCTTTCCGAAAGCGGAGTCACCTAGTGCAG,11400 fluorescence intensity (a.u.)
5,CCTATTAGTAGTAGGCAACACATAAAGCCTTTTTTATTCCCGGAGTCACCTAGTGCAG,8110 fluorescence intensity (a.u.)
6,TCATTCTTTTTCTCAATGTACTTGGATTTTTTTCATGTTTCGGAGTCACCTAGTGCAG,12200 fluorescence intensity (a.u.)
7,CATTCATCCATCTTTCCTTCCATCACTTGCTGGGCTAGCACGGAGTCACCTAGTGCAG,8220 fluorescence intensity (a.u.)
8,GGCCTCACTATCGTCGACTCCTCCACTCCGGGGACTGCCGCGGAGTCACCTAGTGCAG,10000 fluorescence intensity (a.u.)
9,GTCTGCTTGTTCGGAACCCCACTTTATCGTGTATCAATTCCGGAGTCACCTAGTGCAG,11200 fluorescence intensity (a.u.)
10,AACTCCCTCATTCGATCGCCGTCTTCTTCCAGCTCGAGCCCGGAGTCACCTAGTGCAG,8460 fluorescence intensity (a.u.)
11,GGATGGATGTGAATGGATGTGTGTACATGTTGCTAGTTGACGGAGTCACCTAGTGCAG,10500 fluorescence intensity (a.u.)
12,TCGACCCACCGTCTGCCACGTCAGCTTGCCGCCCACCAATCGGAGTCACCTAGTGCAG,8730 fluorescence intensity (a.u.)
13,TTTTTTTTAGTTCTGATCGGTATTTTTGGATGCTTTGAATCGGAGTCACCTAGTGCAG,8270 fluorescence intensity (a.u.)
14,GGGTTTAGGTTTTACAGGGAAATTTACATGGTTACCCTTACGGAGTCACCTAGTGCAG,8920 fluorescence intensity (a.u.)
15,GTGGGGCTTGTTCGTTGCTACCTCCTTCATCATCGGCTTGCGGAGTCACCTAGTGCAG,10500 fluorescence intensity (a.u.)
16,GATAATATTCGATTTCATTTTCGTATCCGAGTTTTCGATTCGGAGTCACCTAGTGCAG,8910 fluorescence intensity (a.u.)
17,GGAGGAGGTGGAGAAGGGGAGGCGGCCGGTGAGCAACGCGCGGAGTCACCTAGTGCAG,8550 fluorescence intensity (a.u.)
18,ACCACCAAATTTCCGGATTTCCGGTCCCGTGTATCCCCAACGGAGTCACCTAGTGCAG,9350 fluorescence intensity (a.u.)
19,AGACCAAATCTCACATCGCTTCCAATACCACCTCCTTCGCCGGAGTCACCTAGTGCAG,8030 fluorescence intensity (a.u.)
20,ACGCACCCGCACGCGCACGCATTTCCAGCTCGCGACGACGCGGAGTCACCTAGTGCAG,9330 fluorescence intensity (a.u.)
21,TGATACCCGCACCCATCTAGCACATCTCTCGCATCCCAATCGGAGTCACCTAGTGCAG,13900 fluorescence intensity (a.u.)

# Another view of some results above.
row	Sequence	binding signal
16	GATAATATTCGATTTCATTTTCGTATCCGAGTTTTCGATTCGGAGTCACCTAGTGCAG	8910 fluorescence intensity (a.u.)
18	ACCACCAAATTTCCGGATTTCCGGTCCCGTGTATCCCCAACGGAGTCACCTAGTGCAG	9350 fluorescence intensity (a.u.)

# Reprinted from the results shown for reference:
row,Sequence,binding signal
5,CCTATTAGTAGTAGGCAACACATAAAGCCTTTTTTATTCCCGGAGTCACCTAGTGCAG,8110 fluorescence intensity (a.u.)
6,TCATTCTTTTTCTCAATGTACTTGGATTTTTTTCATGTTTCGGAGTCACCTAGTGCAG,12200 fluorescence intensity (a.u.)

# Continued.

row,Sequence,binding signal
1,CTTCCTTCCAGCGATAGTGCTTCTTCCTGCTCTTCGTTTCCGGAGTCACCTAGTGCAG,10800 fluorescence intensity (a.u.)
2,ATCCCTCGTCTCCGCTATTTACTCCGTCAGTTGGCCAACTCGGAGTCACCTAGTGCAG,9690 fluorescence intensity (a.u.)
3,AGCGTATCACACAATATTAGTTAAATAAACTTCCTTTATTCGGAGTCACCTAGTGCAG,8480 fluorescence intensity (a.u.)
4,GTTCTCGTATAAGGGTCGTGTCGAATGGGCCAAAAAAACCCGGAGTCACCTAGTGCAG,8050 fluorescence intensity (a.u.)
5,CCTGCATCATCAATCTGCCTACATATCGATCGATTGATCTCGGAGTCACCTAGTGCAG,8480 fluorescence intensity (a.u.)
6,TGCGTGCGTCCATGTGTGTTCATTTGCATAATTGCATTGCCGGAGTCACCTAGTGCAG,9940 fluorescence intensity (a.u.)
7,GCAGATTTTGTTCTACTCTGTCCCACACTTTGTGGCCTCACGGAGTCACCTAGTGCAG,9450 fluorescence intensity (a.u.)
8,ACTTCTAACTTTTACATCACATCGAACTTTCTTACACACACGGAGTCACCTAGTGCAG,10500 fluorescence intensity (a.u.)
9,CCTCAAGACAGATCATCTCCTTTCGGTGCTTTGAAATTTTCGGAGTCACCTAGTGCAG,8560 fluorescence intensity (a.u.)
10,CGGGTATTCTCATCCTCATTCTCTCCGATCCCATTTCCCCCGGAGTCACCTAGTGCAG,9730 fluorescence intensity (a.u.)
11,CCCCGATGCGTTCTTATCCCCACGATTCATCCCACTGCATCGGAGTCACCTAGTGCAG,8130 fluorescence intensity (a.u.)
12,ACTCCGGTTTCGTCGTCCGTTTTGCCTCCGTCTCCGTCTCCGGAGTCACCTAGTGCAG,11300 fluorescence intensity (a.u.)
13,TTATCATTCTCTGTGCGCATACTTTTTAAATTGTTAAACGCGGAGTCACCTAGTGCAG,8860 fluorescence intensity (a.u.)
14,CGAGGTTGGATTTCGCGAGCACGCCCTTGTACACCCTGCCCGGAGTCACCTAGTGCAG,8770 fluorescence intensity (a.u.)
15,GCTTCTCCGCATCCATCAACCACTCACCCAGTTTTGCTGCCGGAGTCACCTAGTGCAG,11300 fluorescence intensity (a.u.)
16,CTCCTTCGTTCCGTGCTTGAAGAATTTGCCGGCGGCCATCCGGAGTCACCTAGTGCAG,9000 fluorescence intensity (a.u.)
17,GATCCGTCTTTGGTCTCTGCGGCCTTCACCAGTGCTCTTCCGGAGTCACCTAGTGCAG,8580 fluorescence intensity (a.u.)
18,TTGCCATCCATCTTCATATATCTATCTCTCTATACTACCTCGGAGTCACCTAGTGCAG,8890 fluorescence intensity (a.u.)
19,TACAAAGTACTACCCCAGCAGCCACCTTTGCATTTTTGCACGGAGTCACCTAGTGCAG,10300 fluorescence intensity (a.u.)
20,TCAATTCGTTATTCTTTTCTTTCCTACTATAAATTTCAGTCGGAGTCACCTAGTGCAG,8310 fluorescence intensity (a.u.)
21,GCGTGTTGTACTGTTCTCCCGCGGTCCCGCCCGAGCAGAGCGGAGTCACCTAGTGCAG,8720 fluorescence intensity (a.u.)
